These are yes or no findings as the source states them, for the method shown.

The experiment has as its target Hexim1 BR-L-AR(S183C-MTSL) (human, UniProt O94992 142-253, S183C). Kind of experiment: condition: only with SL1-dI RNA (1:1.2 protein:RNA ratio); paramagnetic relaxation enhancement (PRE) NMR; total interaction experiment on 15N BR-L-AR(S183C^MTSL) in the presence of SL1-dI RNA (1:1.2 protein:RNA ratio); both purified.

B1: Hexim1 BR-L-AR(S183C^MTSL) (domain or fragment, human)
chain: GGQQQRQLGKKKHRRRPSKKKRHWKPYYKLTWEEKKKFDEKQCLRASRIRAEMFAKGQPVAPYNTTQFLMDDHDQEEPDLKTGLYSKRAAAKSDDTSDDDFMEEGGEEDGGSD
modifications: MTSL nitroxide spin label on C183
notes: non-native glycine that remains at the N-terminus of BR-L-AR after TEV protease cleavage; Hexim1, human, residues 142-253 (BR-L-AR) with S183C; 15N-labelled; not shown: His6, N-terminal, cleaved; MBP, N-terminal, cleaved
Consider B1, for which the binding result is “no binding”.

For the origin of these results see publication PMC12901311, “HEXIM1 inter-monomer autoinhibition governs 7SK RNA binding specificity and P-TEFb inactivation” (Nature Communications, 2024).
